{
  "source": "patent US20050064031A1",
  "about": "“Combination contraceptive, kits that contain the latter, and a method that uses the latter” (priority 1995, published 2005)",
  "origin": "cited, not measured here",
  "key": {"[1]": {"test_system": "ovulation", "conditions": "various animal species and women"}, "[2]": {"test_system": "ovulation; serum FSH and LH"}, "[3]": {"test_system": "ovulation", "conditions": "given at the slight rise in progesterone shortly before ovulation; simultaneous progesterone cancels the effect"}},
  "note": "At least one compound was matched to its structure with a doubt left.",
  "data": [
    {"compound": "CC#C[C@]1(O)CC[C@H]2[C@@H]3CCC4=CC(=O)CCC4=C3[C@@H](c3ccc(N(C)C)cc3)C[C@@]21C", "note": "[RU 486, 11β-[(4-dimethylamino)phenyl]-17β-hydroxy-17α-(1-propinyl)estra-4,9-dien-3-one]", "values": [
      {"measurement": "inhibition of ovulation", "setting": "[1]", "result": "able to inhibit ovulation"},
      {"measurement": "serum concentrations for FSH and LH", "setting": "[2]; 25 mg mifepristone daily day 1-14, then 3 mg norethisterone days 15-24, then 5-day placebo, 3 cycles", "result": "not possible to suppress"},
      {"measurement": "ovulation and maturation of follicles", "setting": "[2]; same regimen, when gestagen was administered in the first two cycles", "result": "evidence that ovulation and maturation of follicles had occurred"},
      {"measurement": "ovulation", "setting": "[3]", "result": "blocks ovulation"}
    ]}
  ]
}
